# Measurements from publication PMC5356440.
# Protein sequences, listed by entry. Tags and fused reporters are not part of them.
# UniProt P30622: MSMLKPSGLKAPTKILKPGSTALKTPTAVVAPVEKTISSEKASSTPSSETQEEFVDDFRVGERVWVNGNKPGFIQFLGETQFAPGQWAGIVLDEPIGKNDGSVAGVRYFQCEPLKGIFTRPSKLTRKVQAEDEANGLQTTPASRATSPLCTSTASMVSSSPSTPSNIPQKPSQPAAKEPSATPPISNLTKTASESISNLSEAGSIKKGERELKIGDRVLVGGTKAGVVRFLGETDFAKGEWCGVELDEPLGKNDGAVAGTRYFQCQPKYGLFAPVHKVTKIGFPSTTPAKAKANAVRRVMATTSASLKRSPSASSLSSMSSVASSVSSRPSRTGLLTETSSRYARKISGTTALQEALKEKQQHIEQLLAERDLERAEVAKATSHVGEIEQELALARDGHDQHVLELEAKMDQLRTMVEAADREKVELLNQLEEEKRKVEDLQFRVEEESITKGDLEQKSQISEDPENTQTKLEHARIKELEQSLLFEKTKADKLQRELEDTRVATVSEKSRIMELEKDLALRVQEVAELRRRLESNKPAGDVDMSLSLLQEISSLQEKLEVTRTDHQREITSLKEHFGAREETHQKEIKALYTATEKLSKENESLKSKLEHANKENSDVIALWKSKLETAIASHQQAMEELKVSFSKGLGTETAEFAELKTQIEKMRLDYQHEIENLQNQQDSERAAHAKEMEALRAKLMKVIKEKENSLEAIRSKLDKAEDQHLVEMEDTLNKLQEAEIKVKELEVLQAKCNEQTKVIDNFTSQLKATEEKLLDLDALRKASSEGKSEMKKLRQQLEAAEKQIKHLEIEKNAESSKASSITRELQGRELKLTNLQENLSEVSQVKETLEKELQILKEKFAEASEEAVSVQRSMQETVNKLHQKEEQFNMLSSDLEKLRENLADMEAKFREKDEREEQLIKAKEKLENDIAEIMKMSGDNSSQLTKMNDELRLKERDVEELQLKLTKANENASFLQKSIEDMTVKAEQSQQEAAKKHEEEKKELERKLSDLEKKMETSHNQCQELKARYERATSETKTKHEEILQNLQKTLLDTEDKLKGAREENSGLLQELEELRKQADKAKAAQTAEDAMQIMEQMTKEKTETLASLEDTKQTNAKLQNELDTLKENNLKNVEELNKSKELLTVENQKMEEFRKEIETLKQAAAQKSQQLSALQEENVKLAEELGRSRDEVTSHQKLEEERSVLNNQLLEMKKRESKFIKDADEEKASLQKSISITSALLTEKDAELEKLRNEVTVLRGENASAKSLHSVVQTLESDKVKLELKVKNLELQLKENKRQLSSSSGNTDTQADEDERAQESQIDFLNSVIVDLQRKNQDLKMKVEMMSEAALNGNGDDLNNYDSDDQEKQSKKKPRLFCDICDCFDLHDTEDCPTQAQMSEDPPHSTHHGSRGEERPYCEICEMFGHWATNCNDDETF
# UniProt P46940: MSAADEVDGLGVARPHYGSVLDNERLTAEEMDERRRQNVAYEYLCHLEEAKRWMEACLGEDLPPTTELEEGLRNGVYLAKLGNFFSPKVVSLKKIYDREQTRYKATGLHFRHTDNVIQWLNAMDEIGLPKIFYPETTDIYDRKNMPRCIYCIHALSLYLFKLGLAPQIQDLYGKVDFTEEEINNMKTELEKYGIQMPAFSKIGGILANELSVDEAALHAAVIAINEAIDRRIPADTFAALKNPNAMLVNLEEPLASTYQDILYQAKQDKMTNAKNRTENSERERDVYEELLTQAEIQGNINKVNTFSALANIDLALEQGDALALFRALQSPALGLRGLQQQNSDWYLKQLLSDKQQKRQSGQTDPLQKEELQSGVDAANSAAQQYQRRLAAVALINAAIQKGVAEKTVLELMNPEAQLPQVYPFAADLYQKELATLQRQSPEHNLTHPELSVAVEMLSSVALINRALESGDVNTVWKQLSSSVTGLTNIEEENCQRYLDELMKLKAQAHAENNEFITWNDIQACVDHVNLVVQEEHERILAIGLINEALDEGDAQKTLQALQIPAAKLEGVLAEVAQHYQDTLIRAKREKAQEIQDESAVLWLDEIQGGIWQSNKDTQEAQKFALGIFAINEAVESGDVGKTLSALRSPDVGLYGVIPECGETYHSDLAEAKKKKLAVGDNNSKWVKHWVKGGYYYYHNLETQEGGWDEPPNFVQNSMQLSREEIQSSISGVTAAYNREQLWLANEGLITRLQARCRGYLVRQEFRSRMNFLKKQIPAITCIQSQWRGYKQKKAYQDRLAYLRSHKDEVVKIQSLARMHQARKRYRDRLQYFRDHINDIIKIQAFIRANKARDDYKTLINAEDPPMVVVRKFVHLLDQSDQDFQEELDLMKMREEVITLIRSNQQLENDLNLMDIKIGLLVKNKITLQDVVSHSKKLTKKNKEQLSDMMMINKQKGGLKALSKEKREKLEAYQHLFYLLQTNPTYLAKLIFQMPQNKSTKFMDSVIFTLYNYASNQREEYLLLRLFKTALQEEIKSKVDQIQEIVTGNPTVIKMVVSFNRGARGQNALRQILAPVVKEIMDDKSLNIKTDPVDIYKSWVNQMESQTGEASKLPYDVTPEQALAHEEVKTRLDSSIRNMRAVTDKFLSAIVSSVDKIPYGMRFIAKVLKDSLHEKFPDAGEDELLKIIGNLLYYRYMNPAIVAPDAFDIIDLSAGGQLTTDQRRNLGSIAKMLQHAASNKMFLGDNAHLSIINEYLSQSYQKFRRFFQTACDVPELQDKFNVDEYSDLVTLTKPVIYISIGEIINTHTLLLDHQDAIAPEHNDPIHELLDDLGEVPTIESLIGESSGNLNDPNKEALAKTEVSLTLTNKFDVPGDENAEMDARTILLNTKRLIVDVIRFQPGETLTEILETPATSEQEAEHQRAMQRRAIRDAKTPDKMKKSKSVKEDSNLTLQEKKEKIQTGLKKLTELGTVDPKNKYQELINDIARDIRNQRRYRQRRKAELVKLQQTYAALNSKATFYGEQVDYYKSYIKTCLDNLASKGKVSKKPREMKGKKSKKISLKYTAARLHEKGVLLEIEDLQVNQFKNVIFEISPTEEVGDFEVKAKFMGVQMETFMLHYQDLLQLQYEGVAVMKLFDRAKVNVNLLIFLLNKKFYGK
# UniProt P35222: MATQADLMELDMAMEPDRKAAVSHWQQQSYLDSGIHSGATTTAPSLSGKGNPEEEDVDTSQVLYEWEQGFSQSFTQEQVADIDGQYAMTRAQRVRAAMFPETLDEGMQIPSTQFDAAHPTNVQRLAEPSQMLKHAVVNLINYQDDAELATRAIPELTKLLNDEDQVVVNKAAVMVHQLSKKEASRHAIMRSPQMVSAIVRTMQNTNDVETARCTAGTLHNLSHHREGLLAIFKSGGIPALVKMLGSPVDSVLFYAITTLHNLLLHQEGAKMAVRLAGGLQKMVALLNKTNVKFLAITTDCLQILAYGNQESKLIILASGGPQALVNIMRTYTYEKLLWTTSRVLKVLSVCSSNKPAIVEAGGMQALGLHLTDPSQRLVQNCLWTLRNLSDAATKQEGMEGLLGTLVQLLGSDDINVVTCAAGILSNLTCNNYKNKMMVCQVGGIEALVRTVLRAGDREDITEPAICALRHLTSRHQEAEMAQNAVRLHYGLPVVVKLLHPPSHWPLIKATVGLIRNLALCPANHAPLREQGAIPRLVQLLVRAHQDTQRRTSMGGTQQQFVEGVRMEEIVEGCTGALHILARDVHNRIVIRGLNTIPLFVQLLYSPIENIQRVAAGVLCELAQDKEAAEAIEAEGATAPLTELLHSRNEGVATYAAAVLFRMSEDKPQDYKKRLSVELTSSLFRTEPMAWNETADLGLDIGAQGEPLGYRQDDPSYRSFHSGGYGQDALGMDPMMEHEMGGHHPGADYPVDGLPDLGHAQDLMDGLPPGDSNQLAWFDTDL
# Results are given in words; binding and its absence hold for the method and conditions named. Binding seen in cells or lysates may run through a third protein. Some entries that bind do so weakly or less than the wild type.
# Molecular target: CLIP-170 (human (endogenous in TC7)) (UniProt P30622)
# Assay: co-IP; confluent TC7 cells lysed in M-PER; mouse monoclonal CLIP-170 F-3 (or mouse IgG as control) bound to Dynabeads protein G as bait; western blot of endogenous proteins
row,binding,Substance
1,binds,IQGAP1 (from UniProt P46940 1-1657)
2,binds,β-catenin (from UniProt P35222 1-781)
